# From the supplement of paper PMC8728848
# The other results are listed elsewhere or left out.
# B1: SP15308C-bot-338-23-338 (Bacteroides ovatus) (protein)
# chain: DEWTDEQFKQLISFKTQPGGWGVTDVHVRYANSAKYTYNLPVLVSGSTDNTDDRLVSFSLRDDTLDILNFEKFGNRPELYFRELPQKYYSFPKELTIPAGQSHALLPIEFSLDGLDDSQKWALPLKVCEDANGTYAVNPRKYYRTAVLRPILFNEFSGRFSGSSLLGTMAGESDIKFSSTEIKLNVVTDSIVFFYAGQRTEDYEDRINYKVFLQFTGDKVDSKKDLYKMKIWAENEKLKFNSYSTPTYKVSSEMDATKTYLKHTYIVISDIDFDFVDYTSVPNYEIEYNMKGGLSVSRDLDTRKPDEDQGSDSKWW
# Experiments:
# Test in all cases: glycan array binding signal (z-score within array); higher = stronger binding
# Details in all cases: glycan notation: IUPAC condensed, linker removed
# [1] = biological target: Fuc(a1-2)Gal(b1-4)[Fuc(a1-3)]GlcNAc
# In short: (§1)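 Arrays were curated from the Consortium for Functional Glycomics database, 3228 in total, and kept only where the protein sequence was available. Binding is expressed as a within-array Z-score. This score was averaged across arrays of the same protein sequence at different concentrations or buffers and across linkers, and negative values can be read as non-binding.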
# [2] = biological target: Fuc(a1-2)Gal(b1-4)[Fuc(a1-3)]GlcNAc(b1-2)Man(a1-3)[Fuc(a1-2)Gal(b1-4)[Fuc(a1-3)]GlcNAc(b1-2)Man(a1-6)]Man(b1-4)GlcNAc(b1-4)[Fuc(a1-6)]GlcNAc
# In short: as §1
# [3] = biological target: Fuc(a1-2)Gal(b1-4)[Fuc(a1-3)]GlcNAc(b1-2)[Fuc(a1-2)Gal(b1-4)[Fuc(a1-3)]GlcNAc(b1-4)]Man(a1-3)[Fuc(a1-2)Gal(b1-4)[Fuc(a1-3)]GlcNAc(b1-2)Man(a1-6)]Man(b1-4)GlcNAc(b1-4)GlcNAc
# In short: as §1
# [4] = biological target: Fuc(a1-2)Gal(b1-4)[Fuc(a1-3)]GlcNAc(b1-3)Gal(b1-4)[Fuc(a1-3)]GlcNAc
# In short: as §1
# [5] = biological target: Fuc(a1-2)Gal(b1-4)[Fuc(a1-3)]GlcNAc(b1-3)Gal(b1-4)[Fuc(a1-3)]GlcNAc(b1-3)Gal(b1-4)[Fuc(a1-3)]GlcNAc
# In short: as §1
# [6] = biological target: Fuc(a1-2)Gal(b1-4)[Fuc(a1-3)]GlcNAc(b1-3)GalNAc
# In short: as §1
# [7] = biological target: Fuc(a1-2)Gal(b1-4)[Fuc(a1-3)]GlcNAc(b1-3)[Neu5Ac(a2-6)Gal(b1-4)GlcNAc(b1-6)]Gal(b1-4)Glc
# In short: as §1
# [8] = biological target: Fuc(a1-2)Gal3S(b1-4)GlcNAc
# In short: as §1
# [9] = biological target: Fuc(a1-2)Gal6S(b1-3)GlcNAc
# In short: as §1
# [10] = biological target: Fuc(a1-2)Gal6S(b1-3)GlcNAc6S
# In short: as §1
# [11] = biological target: Fuc(a1-2)Gal6S(b1-4)Glc
# In short: as §1
# [12] = biological target: Fuc(a1-2)Gal6S(b1-4)Glc6S
# In short: as §1
# [13] = biological target: Fuc(a1-2)[Gal(a1-3)]Gal
# In short: as §1
# [14] = biological target: Fuc(a1-2)[Gal(a1-3)]Gal(b1-3)GalNAc
# In short: as §1
# [15] = biological target: Fuc(a1-2)[Gal(a1-3)]Gal(b1-3)GalNAc(b1-3)Gal(a1-4)Gal(b1-4)Glc
# In short: as §1
# [16] = biological target: Fuc(a1-2)[Gal(a1-3)]Gal(b1-3)GlcNAc
# In short: as §1
# [17] = biological target: Fuc(a1-2)[Gal(a1-3)]Gal(b1-3)GlcNAc(b1-2)Man(a1-3)[Fuc(a1-2)[Gal(a1-3)]Gal(b1-3)GlcNAc(b1-2)Man(a1-6)]Man(b1-4)GlcNAc(b1-4)GlcNAc
# In short: as §1
# [18] = biological target: Fuc(a1-2)[Gal(a1-3)]Gal(b1-3)GlcNAc(b1-2)Man(a1-3)[Fuc(a1-2)[Gal(a1-3)]Gal(b1-3)GlcNAc(b1-2)Man(a1-6)]Man(b1-4)GlcNAc(b1-4)[Fuc(a1-6)]GlcNAc
# In short: as §1
# [19] = biological target: Fuc(a1-2)[Gal(a1-3)]Gal(b1-3)GlcNAc(b1-3)GalNAc
# In short: as §1
# [20] = biological target: Fuc(a1-2)[Gal(a1-3)]Gal(b1-3)GlcNAc(b1-6)GalNAc
# In short: as §1
# [21] = biological target: Fuc(a1-2)[Gal(a1-3)]Gal(b1-4)Glc
# In short: as §1
# [22] = biological target: Fuc(a1-2)[Gal(a1-3)]Gal(b1-4)GlcNAc
# In short: as §1
# [23] = biological target: Fuc(a1-2)[Gal(a1-3)]Gal(b1-4)GlcNAc(b1-2)Man
# In short: as §1
# [24] = biological target: Fuc(a1-2)[Gal(a1-3)]Gal(b1-4)GlcNAc(b1-2)Man(a1-3)[Fuc(a1-2)[Gal(a1-3)]Gal(b1-4)GlcNAc(b1-2)Man(a1-6)]Man(b1-4)GlcNAc(b1-4)GlcNAc
# In short: as §1
# [25] = biological target: Fuc(a1-2)[Gal(a1-3)]Gal(b1-4)GlcNAc(b1-2)Man(a1-3)[Fuc(a1-2)[Gal(a1-3)]Gal(b1-4)GlcNAc(b1-2)Man(a1-6)]Man(b1-4)GlcNAc(b1-4)[Fuc(a1-6)]GlcNAc
# In short: as §1
# [26] = biological target: Fuc(a1-2)[Gal(a1-3)]Gal(b1-4)GlcNAc(b1-3)GalNAc
# In short: as §1
# [27] = biological target: Fuc(a1-2)[Gal(a1-3)]Gal(b1-4)GlcNAc(b1-3)[Fuc(a1-2)[Gal(a1-3)]Gal(b1-4)GlcNAc(b1-6)]GalNAc
# In short: as §1
# [28] = biological target: Fuc(a1-2)[Gal(a1-3)]Gal(b1-4)GlcNAc(b1-6)GalNAc
# In short: as §1
# [29] = biological target: Fuc(a1-2)[Gal(a1-3)]Gal(b1-4)[Fuc(a1-3)]Glc
# In short: as §1
# [30] = biological target: Fuc(a1-2)[Gal(a1-3)]Gal(b1-4)[Fuc(a1-3)]GlcNAc
# In short: as §1
# [31] = biological target: Fuc(a1-2)[Gal(a1-3)]Gal(b1-4)[Fuc(a1-3)]GlcNAc(b1-3)GalNAc
# In short: as §1
# [32] = biological target: Fuc(a1-2)[Gal(a1-4)]Gal(b1-4)GlcNAc
# In short: as §1
# [33] = biological target: Fuc(a1-2)[GalNAc(a1-3)]Gal
# In short: as §1
# [34] = biological target: Fuc(a1-2)[GalNAc(a1-3)]Gal(b1-3)GalNAc(a1-3)[Fuc(a1-2)]Gal(b1-4)GlcNAc
# In short: as §1
# [35] = biological target: Fuc(a1-2)[GalNAc(a1-3)]Gal(b1-3)GalNAc(b1-3)Gal(a1-4)Gal(b1-4)Glc
# In short: as §1
# [36] = biological target: Fuc(a1-2)[GalNAc(a1-3)]Gal(b1-3)GlcNAc
# In short: as §1
# [37] = biological target: Fuc(a1-2)[GalNAc(a1-3)]Gal(b1-3)GlcNAc(b1-2)Man(a1-3)[Fuc(a1-2)[GalNAc(a1-3)]Gal(b1-3)GlcNAc(b1-2)Man(a1-6)]Man(b1-4)GlcNAc(b1-4)GlcNAc
# In short: as §1
# [38] = biological target: Fuc(a1-2)[GalNAc(a1-3)]Gal(b1-3)GlcNAc(b1-2)Man(a1-3)[Fuc(a1-2)[GalNAc(a1-3)]Gal(b1-3)GlcNAc(b1-2)Man(a1-6)]Man(b1-4)GlcNAc(b1-4)[Fuc(a1-6)]GlcNAc
# In short: as §1
binder,measurement,setting,value
B1,glycan array binding signal (z-score),[1],-0.86
same,glycan array binding signal (z-score),[2],-0.126
same,glycan array binding signal (z-score),[3],0.437
same,glycan array binding signal (z-score),[4],-0.145
same,glycan array binding signal (z-score),[5],0.281
same,glycan array binding signal (z-score),[6],1.08
same,glycan array binding signal (z-score),[7],-0.254
same,glycan array binding signal (z-score),[8],-0.996
same,glycan array binding signal (z-score),[9],0.444
same,glycan array binding signal (z-score),[10],0.349
same,glycan array binding signal (z-score),[11],0.374
same,glycan array binding signal (z-score),[12],0.233
same,glycan array binding signal (z-score),[13],-0.151
same,glycan array binding signal (z-score),[14],-0.434
same,glycan array binding signal (z-score),[15],-0.115
same,glycan array binding signal (z-score),[16],1.19
same,glycan array binding signal (z-score),[17],0.042
same,glycan array binding signal (z-score),[18],0.018
same,glycan array binding signal (z-score),[19],-0.608
same,glycan array binding signal (z-score),[20],0.174
same,glycan array binding signal (z-score),[21],-0.065
same,glycan array binding signal (z-score),[22],-0.155
same,glycan array binding signal (z-score),[23],-0.124
same,glycan array binding signal (z-score),[24],1.38
same,glycan array binding signal (z-score),[25],-0.606
same,glycan array binding signal (z-score),[26],-0.468
same,glycan array binding signal (z-score),[27],-0.024
same,glycan array binding signal (z-score),[28],-0.925
same,glycan array binding signal (z-score),[29],-0.609
same,glycan array binding signal (z-score),[30],-0.209
same,glycan array binding signal (z-score),[31],0.386
same,glycan array binding signal (z-score),[32],0.026
same,glycan array binding signal (z-score),[33],0.382
same,glycan array binding signal (z-score),[34],-0.332
same,glycan array binding signal (z-score),[35],-0.514
same,glycan array binding signal (z-score),[36],-0.228
same,glycan array binding signal (z-score),[37],0.307
same,glycan array binding signal (z-score),[38],-0.165

# Copied from the entries so far (2 entries):
binder,measurement,setting,value
B1,glycan array binding signal (z-score),[21],-0.065
same,glycan array binding signal (z-score),[22],-0.155
